Experimental data as given in PMC10704435.
These are yes or no findings as the source states them, for the method shown. Binding seen in cells or lysates may run through a third protein. Some binding calls cover weakened binding; strength is not graded here.

Amino acid sequences for entries named in this document (tags omitted). Residues count along the entry.
UniProt Q99523, residues 78-831: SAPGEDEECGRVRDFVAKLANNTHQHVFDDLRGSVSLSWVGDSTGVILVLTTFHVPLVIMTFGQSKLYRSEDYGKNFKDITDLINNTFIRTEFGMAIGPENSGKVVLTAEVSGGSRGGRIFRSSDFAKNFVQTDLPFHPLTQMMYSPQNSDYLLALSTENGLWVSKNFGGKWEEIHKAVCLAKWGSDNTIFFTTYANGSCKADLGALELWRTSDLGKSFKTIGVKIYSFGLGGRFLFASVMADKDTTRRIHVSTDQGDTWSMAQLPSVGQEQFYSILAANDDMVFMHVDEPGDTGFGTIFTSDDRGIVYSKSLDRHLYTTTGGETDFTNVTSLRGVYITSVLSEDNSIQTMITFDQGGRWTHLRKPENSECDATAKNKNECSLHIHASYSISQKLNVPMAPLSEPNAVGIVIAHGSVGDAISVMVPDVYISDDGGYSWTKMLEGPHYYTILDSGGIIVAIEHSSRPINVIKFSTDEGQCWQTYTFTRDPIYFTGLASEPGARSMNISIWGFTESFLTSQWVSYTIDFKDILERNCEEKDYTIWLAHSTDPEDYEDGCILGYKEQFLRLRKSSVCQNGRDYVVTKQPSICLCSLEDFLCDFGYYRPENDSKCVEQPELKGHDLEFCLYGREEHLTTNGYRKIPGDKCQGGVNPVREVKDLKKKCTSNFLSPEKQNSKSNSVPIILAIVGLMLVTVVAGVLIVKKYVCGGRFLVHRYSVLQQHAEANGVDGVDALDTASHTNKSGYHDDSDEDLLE
UniProt P42857: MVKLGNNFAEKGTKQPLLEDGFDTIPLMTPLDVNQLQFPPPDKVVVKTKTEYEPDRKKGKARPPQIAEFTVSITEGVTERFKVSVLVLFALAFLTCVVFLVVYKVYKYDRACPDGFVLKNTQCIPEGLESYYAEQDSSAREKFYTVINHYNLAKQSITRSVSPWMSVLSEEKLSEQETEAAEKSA
UniProt Q9Y328: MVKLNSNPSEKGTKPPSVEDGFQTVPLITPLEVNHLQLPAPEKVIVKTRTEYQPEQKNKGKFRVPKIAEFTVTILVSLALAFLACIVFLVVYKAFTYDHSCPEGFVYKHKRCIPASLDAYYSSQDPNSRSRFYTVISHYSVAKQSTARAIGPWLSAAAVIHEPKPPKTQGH

Experiments:
[1] = molecular target: human sortilin in pcDNA3.1 (human) (UniProt Q99523); experiment: co-IP; transiently transfected HEK293MSR cells, lysis in 50 mM Tris-HCl pH 7.4, 150 mM NaCl, 5 mM CHAPS, 4 °C; IP with rabbit anti-sortilin (ab16640), rabbit anti-NSG1 (LS-B14123) or control rabbit IgG, protein A-agarose; Western blot
[2] = molecular target: human NSG1 in pcDNA3 (human) (UniProt P42857); experiment: as above

Substance | binding [1] | binding [2]
human NSG1 in pcDNA3 (from UniProt P42857 1-185) | binds | –
human NSG2 in pcDNA3.1(+) (from UniProt Q9Y328 1-171) | binds | –
human sortilin in pcDNA3.1 (from UniProt Q99523 78-831) (receptor) | – | binds
